First the molecules themselves.
B1: Fir1 (protein, UniProt P40020 1-876)
chain: MSLPVTPVKSKVCSTLSIQHEMDHDQCRDVLCPRENLLAINRTNNIESVAIPRQRSSKNKKPHEHTQSQVRFSIPDPNEISQDSPLKIVFPKSGNETERRMSTSSLLMNSHGHLVDMHSKILVDVPKEVWKFHHNRRKKCESRHRKTRSDVRSNTSSSGKEPNHSRSKSLQSIIVDTMNTYRATEVETSINENTSNISQVSPLNLSFDRPPPLTPEKNLYLTPESPLNRYHLPVPLEISLPPYLSPQNKDKKRSSLVYDGDGYSQFQEGNTSSSTESSLEQPSSSYSDEDDSIPYAHHDVSFELNNADADKLLGIDENANVNLKIQRRNLKNPQHIKSKTDRECEEKNTEKNVSLKILSTPNKLIDIPDLEHMKSPPSTGLNGTLKFFQQFEPSEEPTSPTRQVNPESLDKLDMSFKFPSSTTNNNVDKVHENRNSGDTNNEDFLKVDTSPVNQSFESRRQMLIDLQKSPTNNNPRIHKHRRSRSVHNIDDISLNFEATSTPPAPTSAPSIPVEHSNPCTSIEIPKRSPLRFTSSPKTSDIPPEAQSPKNGSFLQEISVPSIQIIPDESISHTREPSPSLIECPEDENEAFSTEVADHSIAIISETKSVPSIEPFKPLSSFNSFGQEIQNKEPTPLNQTPTDLIGKQRNCVNPHSIPFSVLSSNSQSSQSGSSKSSYNSEFSSNTAITDTTSQPSVTINRSTLEHNFIEEKRSIKNLGHGPPSQKNNYSFPRNKNTPSNRHDLDFNTIYEKRDGKMVEVILLDEDEDVGLKNNDISRTRVCHAQKAKNEQQKKRLSHCNEILGMCDKTADDAKRIIYQLVNEKHKFSEKGQQTKPKKSRVLPPLPFPLYDEKGNSLIPNKYQSSIHNDIPSHRKLK
B2: Ace2 (protein, UniProt P21192 1-770)
chain: MDNVVDPWYINPSGFAKDTQDEEYVQHHDNVNPTIPPPDNYILNNENDDGLDNLLGMDYYNIDDLLTQELRDLDIPLVPSPKTGDGSSDKKNIDRTWNLGDENNKVSHYSKKSMSSHKRGLSGTAIFGFLGHNKTLSISSLQQSILNMSKDPQPMELINELGNHNTVKNNNDDFDHIRENDGENSYLSQVLLKQQEELRIALEKQKEVNEKLEKQLRDNQIQQEKLRKVLEEQEEVAQKLVSGATNSNSKPGSPVILKTPAMQNGRMKDNAIIVTTNSANGGYQFPPPTLISPRMSNTSINGSPSRKYHRQRYPNKSPESNGLNLFSSNSGYLRDSELLSFSPQNYNLNLDGLTYNDHNNTSDKNNNDKKNSTGDNIFRLFEKTSPGGLSISPRINGNSLRSPFLVGTDKSRDDRYAAGTFTPRTQLSPIHKKRESVVSTVSTISQLQDDTEPIHMRNTQNPTLRNANALASSSVLPPIPGSSNNTPIKNSLPQKHVFQHTPVKAPPKNGSNLAPLLNAPDLTDHQLEIKTPIRNNSHCEVESYPQVPPVTHDIHKSPTLHSTSPLPDEIIPRTTPMKITKKPTTLPPGTIDQYVKELPDKLFECLYPNCNKVFKRRYNIRSHIQTHLQDRPYSCDFPGCTKAFVRNHDLIRHKISHNAKKYICPCGKRFNREDALMVHRSRMICTGGKKLEHSINKKLTSPKKSLLDSPHDTSPVKETIARDKDGSVLMKMEEQLRDDMRKHGLLDPPPSTAAHEQNSNRTLSNETDAL
B3: Kic1 (enzyme, UniProt P38692 1-1080)
chain: MTTKPQNSKQGLAEGEMDVSSLFKRTEVIGRGKFGVVYKGYNVKTGRVYAIKVLNLDSDSDEVEDVQREIQFLASLKQISNITRYYGSYLKDTSLWIIMEHCAGGSLRSLLRPGKIDEKYIGVIMRELLVALKCIHKDNVIHRDIKAANVLITNEGNVKLCDFGVAAQVNQTSLRRQTMAGTPYWMAPEVIMEGVYYDTKVDIWSLGITTYEIATGNPPYCDVEALRAMQLIIKSKPPRLEDRSYSTSLKEFIALCLDEDPKERLSADDLLKSKFIRAHKATPTSILKELISRYLLFRDKNKNKYKIEGSIPENEPSKPSEAPKPSQNGGGDEAQKSIASNDNEIKRVNEGDVEMKWDFDSLSSSDYIIENNINLDALAEDNNEWATAQHDLFNYAYPDEDSYYFDPTSHNTRPFVYQGTTIGKGYPGTIAQNSTLNAPVTNNYTNSKYPSKMVAGTTNTSGTHTAGPMTSSKRLESKAPKQLLELFEDNEIITAENDVNTEAPKISKSISSLNAGNSSRDDFIPSISNEVNGNINNNKMRPHLPPLSSGNNYYSQSTPALPLLQTKFNKTSKGPPTSGLTTAPTSIEIEIPEELPNSALPTPASADPVLIPSTKARSSTVTAGTPSSSSSIQYKSPSNVPRRLTVSNNRPEHCPSTITNQKLGSAVASNSGISSTPNNSNNYNNNTDSENSRGSSGSNTANSTQMGITNPGNVTKLSTHKASSPSRPLFGVGTSPNRKPAGSPTQNIGHNSTHTNLAPPPTMKPMANSKDNKDILLQPLNSIPSSSTLNTISGNSSNNLTSSNYFSNEKEGSRVNGDFKRNNPNLKLQMPLPTPVVRNKLLDPNTATSQNNNGMPGSAGISTNENINQFGFNTSSASNIPVSMTPISEKHIDFGGKIKRSQSISNRKNSSASEHPLNILGSSVSGNVSGIGNNNVGSNNNSGPNNSVPLSANTGNTTIKANSTTIATSSSAAASTTAPISQQTIPSGTQFNHILSSAATAANSVNSLGFGMCPPPQSLQMEMFLDLESFLPGKQRRVDRKPQVLKELENLLQMFEEGLPCIEHALKEQLISTPIKDNEH
B4: Lre1 (protein, UniProt P25579 1-583)
chain: MPNTHTQHVQISEPNPVNTLSTPSKRGHRHRRSLAISGDFDFLKQPAAIVNLPPPQAAENCPSTAPTAVSSTLSPIRYNRFPCKTNEDAGTLDLPEPRFYPLSPKNNLQTPSPRFFISEEPSFSSPVKGVPDAIINLDDALKTRPRSFKSHRRSESAPPDLEVMVDKGNCAAGSNSMIKEEEDSLIEPESKNEYYEQKLPTALLSPLRPSLCVSEQAIDVDDSALNGSPTHHNHGMQNANARNSNTFNSLKIKGQKQRYYHYTKQLPLTVGCDSQSPKEQRSAASMTINQAMTPSSLAYTPSKLASTPATPVSFYDSNADINLESDNFPLKDNPRYAKDGYPKKCGNSQLNRVLDSDKRQDFSGESRRRRSGSPISHMQHRNLIDNMKGRRNSNTINSIFNYKSQHYEMPYDDMMKNENINAQSMPFSVNGVNNENSIGGVITRADDAPLQHSVVKSCTPDGKEEMNRLKSNDSNEYSKSEGQIRTNSQLSKDILMGEPGDMVDLSSFVNAQRKASNETGDLVFSLSQDDDALKTFHASNSAATSNESWCISDDALGKQAQDSEVRRKRKSKLGLFRHIFSRK

Protein sequences, listed by entry. Tags and fused reporters are not part of them.
UniProt P53894: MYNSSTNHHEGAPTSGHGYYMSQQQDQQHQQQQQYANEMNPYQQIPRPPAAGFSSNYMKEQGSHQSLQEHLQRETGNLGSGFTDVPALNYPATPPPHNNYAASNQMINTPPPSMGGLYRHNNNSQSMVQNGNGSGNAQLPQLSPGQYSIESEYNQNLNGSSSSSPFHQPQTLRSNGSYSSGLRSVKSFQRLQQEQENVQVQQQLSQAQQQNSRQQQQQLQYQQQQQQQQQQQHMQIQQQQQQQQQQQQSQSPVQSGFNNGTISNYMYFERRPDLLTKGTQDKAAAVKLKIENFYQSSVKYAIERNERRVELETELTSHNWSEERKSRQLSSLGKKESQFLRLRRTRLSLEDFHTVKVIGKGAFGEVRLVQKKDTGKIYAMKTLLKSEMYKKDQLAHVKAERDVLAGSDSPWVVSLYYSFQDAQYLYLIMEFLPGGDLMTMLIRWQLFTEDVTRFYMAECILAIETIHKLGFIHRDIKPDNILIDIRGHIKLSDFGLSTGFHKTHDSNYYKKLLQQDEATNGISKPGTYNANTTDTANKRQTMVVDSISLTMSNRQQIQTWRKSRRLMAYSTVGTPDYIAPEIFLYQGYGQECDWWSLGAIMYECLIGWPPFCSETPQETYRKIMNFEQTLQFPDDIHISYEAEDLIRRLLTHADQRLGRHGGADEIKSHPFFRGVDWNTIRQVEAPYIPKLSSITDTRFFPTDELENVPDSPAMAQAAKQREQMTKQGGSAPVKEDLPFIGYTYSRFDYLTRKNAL
UniProt P33332: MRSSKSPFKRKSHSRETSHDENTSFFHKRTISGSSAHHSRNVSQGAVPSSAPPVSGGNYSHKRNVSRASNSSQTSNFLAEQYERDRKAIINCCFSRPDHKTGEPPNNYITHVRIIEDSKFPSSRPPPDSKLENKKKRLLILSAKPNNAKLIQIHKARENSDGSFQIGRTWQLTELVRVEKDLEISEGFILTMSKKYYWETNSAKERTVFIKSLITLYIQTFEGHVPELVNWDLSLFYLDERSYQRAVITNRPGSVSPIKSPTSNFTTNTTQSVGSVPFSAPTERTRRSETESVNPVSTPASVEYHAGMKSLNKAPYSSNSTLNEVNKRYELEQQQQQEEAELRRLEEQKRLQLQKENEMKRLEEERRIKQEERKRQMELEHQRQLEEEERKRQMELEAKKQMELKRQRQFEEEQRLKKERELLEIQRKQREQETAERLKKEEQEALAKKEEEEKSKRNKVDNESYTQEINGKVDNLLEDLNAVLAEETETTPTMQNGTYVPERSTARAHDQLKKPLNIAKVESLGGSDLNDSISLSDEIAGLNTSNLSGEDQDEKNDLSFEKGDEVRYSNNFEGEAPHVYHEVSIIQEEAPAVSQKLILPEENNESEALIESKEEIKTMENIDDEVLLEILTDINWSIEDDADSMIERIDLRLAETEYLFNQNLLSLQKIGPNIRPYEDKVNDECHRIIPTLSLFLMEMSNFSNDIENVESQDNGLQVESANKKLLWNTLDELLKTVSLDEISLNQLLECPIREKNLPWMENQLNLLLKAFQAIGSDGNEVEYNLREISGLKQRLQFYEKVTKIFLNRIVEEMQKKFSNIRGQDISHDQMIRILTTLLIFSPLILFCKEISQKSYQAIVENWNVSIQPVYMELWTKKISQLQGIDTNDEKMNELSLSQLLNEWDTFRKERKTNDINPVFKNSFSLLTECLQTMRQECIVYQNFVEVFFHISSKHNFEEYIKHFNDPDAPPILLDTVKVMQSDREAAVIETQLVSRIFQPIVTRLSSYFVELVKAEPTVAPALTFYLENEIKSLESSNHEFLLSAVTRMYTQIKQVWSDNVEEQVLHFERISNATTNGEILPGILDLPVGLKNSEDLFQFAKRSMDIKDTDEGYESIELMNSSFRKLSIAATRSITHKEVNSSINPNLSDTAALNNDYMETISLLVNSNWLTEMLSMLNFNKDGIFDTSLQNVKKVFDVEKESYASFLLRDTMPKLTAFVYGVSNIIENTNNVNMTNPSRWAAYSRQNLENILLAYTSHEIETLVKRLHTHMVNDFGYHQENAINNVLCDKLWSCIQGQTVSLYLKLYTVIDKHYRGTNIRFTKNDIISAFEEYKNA
UniProt P40468: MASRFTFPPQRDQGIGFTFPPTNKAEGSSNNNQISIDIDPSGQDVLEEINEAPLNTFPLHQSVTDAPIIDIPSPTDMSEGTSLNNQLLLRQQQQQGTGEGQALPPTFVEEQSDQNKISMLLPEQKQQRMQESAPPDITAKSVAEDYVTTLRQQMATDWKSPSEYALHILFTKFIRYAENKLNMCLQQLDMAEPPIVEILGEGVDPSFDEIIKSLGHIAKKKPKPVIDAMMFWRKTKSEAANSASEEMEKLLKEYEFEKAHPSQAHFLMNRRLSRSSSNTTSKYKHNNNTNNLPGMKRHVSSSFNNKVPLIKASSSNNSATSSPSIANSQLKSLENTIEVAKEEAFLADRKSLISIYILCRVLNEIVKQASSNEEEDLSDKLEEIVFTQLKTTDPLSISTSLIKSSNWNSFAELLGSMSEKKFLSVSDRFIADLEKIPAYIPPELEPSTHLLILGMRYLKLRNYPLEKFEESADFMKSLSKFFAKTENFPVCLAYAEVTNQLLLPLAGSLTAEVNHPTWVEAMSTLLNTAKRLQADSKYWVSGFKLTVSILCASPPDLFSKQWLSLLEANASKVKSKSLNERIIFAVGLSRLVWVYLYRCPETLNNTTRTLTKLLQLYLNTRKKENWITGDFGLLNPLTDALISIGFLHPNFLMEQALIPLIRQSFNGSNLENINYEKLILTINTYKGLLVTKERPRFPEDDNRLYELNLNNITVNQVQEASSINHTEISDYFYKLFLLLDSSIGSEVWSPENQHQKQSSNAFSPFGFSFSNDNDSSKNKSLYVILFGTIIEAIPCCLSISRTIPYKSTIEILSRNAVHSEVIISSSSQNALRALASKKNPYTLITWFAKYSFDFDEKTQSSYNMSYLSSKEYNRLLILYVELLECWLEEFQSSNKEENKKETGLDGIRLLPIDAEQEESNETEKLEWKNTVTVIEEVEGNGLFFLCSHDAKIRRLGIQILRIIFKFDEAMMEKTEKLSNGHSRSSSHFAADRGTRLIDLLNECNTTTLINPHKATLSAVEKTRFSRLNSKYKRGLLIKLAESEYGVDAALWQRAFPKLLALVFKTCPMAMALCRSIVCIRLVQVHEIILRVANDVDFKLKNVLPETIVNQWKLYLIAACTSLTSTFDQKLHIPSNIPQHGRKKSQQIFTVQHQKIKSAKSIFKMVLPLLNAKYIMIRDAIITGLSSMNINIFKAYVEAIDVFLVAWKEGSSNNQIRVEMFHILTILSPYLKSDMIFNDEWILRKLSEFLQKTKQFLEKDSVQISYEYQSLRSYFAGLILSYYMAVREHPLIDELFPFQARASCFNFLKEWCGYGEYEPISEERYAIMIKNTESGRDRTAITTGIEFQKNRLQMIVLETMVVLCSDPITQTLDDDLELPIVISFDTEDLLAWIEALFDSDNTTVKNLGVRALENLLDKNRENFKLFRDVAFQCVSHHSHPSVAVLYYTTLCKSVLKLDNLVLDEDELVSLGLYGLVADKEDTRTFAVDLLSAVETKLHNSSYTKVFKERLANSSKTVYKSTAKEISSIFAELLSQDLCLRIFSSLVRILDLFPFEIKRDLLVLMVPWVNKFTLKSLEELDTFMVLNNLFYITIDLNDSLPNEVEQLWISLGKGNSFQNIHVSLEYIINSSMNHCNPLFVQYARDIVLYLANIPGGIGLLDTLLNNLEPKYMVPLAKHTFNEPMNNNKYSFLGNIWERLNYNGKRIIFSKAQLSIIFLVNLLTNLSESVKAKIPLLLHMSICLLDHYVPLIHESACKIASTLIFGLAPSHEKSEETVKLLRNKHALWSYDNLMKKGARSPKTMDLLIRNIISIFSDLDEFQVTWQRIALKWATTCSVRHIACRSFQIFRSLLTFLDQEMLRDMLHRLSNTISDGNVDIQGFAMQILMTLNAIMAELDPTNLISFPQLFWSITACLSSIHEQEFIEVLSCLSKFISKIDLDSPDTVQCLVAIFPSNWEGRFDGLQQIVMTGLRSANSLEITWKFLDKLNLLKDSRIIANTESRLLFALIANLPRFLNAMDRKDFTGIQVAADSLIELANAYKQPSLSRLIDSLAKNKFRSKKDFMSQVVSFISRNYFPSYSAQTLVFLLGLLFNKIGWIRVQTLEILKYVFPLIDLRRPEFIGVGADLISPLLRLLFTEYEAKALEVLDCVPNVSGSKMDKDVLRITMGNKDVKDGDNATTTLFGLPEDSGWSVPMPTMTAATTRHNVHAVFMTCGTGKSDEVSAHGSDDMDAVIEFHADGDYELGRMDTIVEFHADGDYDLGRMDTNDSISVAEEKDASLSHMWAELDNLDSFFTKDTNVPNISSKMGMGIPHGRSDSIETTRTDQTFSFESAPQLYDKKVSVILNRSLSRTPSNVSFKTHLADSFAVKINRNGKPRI
UniProt P38873: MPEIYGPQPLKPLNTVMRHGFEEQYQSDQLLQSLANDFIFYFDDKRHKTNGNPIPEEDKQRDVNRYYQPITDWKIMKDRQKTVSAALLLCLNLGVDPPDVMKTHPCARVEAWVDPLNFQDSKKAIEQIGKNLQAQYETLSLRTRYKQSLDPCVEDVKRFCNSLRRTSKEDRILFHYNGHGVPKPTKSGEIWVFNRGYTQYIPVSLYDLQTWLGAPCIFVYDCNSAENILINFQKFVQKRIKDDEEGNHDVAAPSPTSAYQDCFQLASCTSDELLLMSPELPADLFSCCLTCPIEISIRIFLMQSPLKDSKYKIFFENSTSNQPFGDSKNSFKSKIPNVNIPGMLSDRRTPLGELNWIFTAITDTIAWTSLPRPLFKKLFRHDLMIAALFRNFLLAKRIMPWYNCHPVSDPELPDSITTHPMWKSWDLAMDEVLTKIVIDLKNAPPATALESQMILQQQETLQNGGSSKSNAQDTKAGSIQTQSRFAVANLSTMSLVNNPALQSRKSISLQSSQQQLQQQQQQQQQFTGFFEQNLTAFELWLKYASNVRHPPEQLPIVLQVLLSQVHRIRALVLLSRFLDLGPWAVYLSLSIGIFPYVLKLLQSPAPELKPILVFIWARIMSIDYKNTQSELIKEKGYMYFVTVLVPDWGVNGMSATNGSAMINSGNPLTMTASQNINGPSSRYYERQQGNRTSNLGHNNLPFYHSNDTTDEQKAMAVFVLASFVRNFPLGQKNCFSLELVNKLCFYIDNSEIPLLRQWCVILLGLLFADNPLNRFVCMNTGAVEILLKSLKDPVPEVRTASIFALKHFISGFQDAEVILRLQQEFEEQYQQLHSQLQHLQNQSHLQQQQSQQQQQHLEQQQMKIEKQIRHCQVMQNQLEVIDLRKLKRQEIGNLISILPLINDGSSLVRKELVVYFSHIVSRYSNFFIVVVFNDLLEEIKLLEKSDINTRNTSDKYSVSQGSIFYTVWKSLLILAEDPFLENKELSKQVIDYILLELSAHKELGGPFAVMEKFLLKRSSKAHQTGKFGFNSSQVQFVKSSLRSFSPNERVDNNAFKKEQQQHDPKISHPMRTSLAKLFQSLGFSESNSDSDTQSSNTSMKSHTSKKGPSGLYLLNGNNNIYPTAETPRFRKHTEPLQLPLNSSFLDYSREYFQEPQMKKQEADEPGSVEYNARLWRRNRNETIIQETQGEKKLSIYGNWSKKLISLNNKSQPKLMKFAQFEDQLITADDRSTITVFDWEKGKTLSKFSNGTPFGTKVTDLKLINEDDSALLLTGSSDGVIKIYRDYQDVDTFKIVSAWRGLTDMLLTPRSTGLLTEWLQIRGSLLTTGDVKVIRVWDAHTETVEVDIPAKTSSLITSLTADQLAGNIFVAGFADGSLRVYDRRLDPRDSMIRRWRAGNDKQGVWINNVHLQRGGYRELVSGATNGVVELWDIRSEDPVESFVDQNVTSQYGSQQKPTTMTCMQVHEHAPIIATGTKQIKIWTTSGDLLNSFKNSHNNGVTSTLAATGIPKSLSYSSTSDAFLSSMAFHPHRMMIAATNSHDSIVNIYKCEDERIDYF

These are yes or no findings as the source states them, for the method shown. In cells and extracts the contact can be indirect. These calls come from enrichment with a bait or labelling near it, and not all partners need be listed.

One assay addresses Cbk1-GFP (S. cerevisiae) (UniProt P53894). Put plainly: affinity purification with mass spectrometry; Cbk1-GFP immunoprecipitated on GFP-Trap Magnetic beads from extracts of cdc15-2 (with or without rapamycin) and TOR1-1 cdc15-2 (with rapamycin) cells arrested in late anaphase at 37 °C; three biological replicates against untagged control cells; spectral counts, SAINT.
For Sec3 (from UniProt P33332 1-1336), the binding entry is “binds”.

As to Tao3 (from UniProt P40468 1-2376), the binding entry is given as “binds”.

With Myo1 (from UniProt P08964 1-1928), the binding entry is recorded as “binds”.

Consider Kog1 (from UniProt P38873 1-1557), for which the binding result was “binds”.

For “Tor1 (from UniProt P35169 1-2470) (enzyme)”, the binding entry is recorded as “binds”.

The target is the same in the next assay. The description is as above. The source holds these as a separate data set.
As to B1, the binding result is on record as “binds”.

Take B2: the binding result was “binds”.

In the case of B3, the binding entry was “binds”.

In the case of B4, the binding entry is listed as “binds”.

Values taken from publication PMC10468069.
